Measured values taken from PMC12209172, “Poly(ADP-ribose)polymerase 2 is zinc-dependent enzyme and nucleosome reorganizer” (Cellular and Molecular Life Sciences: CMLS, 2025).
“And” between values parts separate entries of the source, which are not always exact repeats. Equal values may be shown once. This continues a long series; more values of the same kind are listed elsewhere.

The chains behind the UniProt entries cited, without tags or fusion partners. Residues count along the entry.
UniProt Q9UGN5, 77-220: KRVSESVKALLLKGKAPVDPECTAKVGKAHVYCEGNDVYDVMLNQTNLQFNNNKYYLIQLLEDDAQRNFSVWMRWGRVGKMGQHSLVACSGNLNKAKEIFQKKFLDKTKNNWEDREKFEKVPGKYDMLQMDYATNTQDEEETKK

Molecular target: T1, WGR domain of PARP2 (Homo sapiens, UniProt Q9UGN5)
T1 construct: WGR domain of PARP2 (residues 77–220) into pET-15b-TEV expression vector; 6xHis (pET-15b-TEV) (N, cleaved yes); made in house; host or cells: Escherichia coli Rosetta2 (DE3) pLysS
Test: Tryptophan fluorescence spectroscopy of the WGR domain titrated with divalent cations (one site binding fit)
Settings: listed as Zn
Method: Fluorescence spectra of Trp residues were measured in the 300–450 nm spectral range at the 270 nm excitation wavelengths using the Cary Eclipse spectrofluorometer (Varian/Agilent, USA).
Fluorescence of WGR domain was measured at 0.5 or 5 µM in a buffer containing 10 mM HEPES (pH 8.0), 150 mM NaCl and 0.73 or 7.3 µM EDTA, respectively. Solutions were complemented with ZnCl2 (0.2–308 µM) or MgCl2 (15–5000 µM), or CaCl2 (8–5000 µM) dissolved in a buffer containing 10 mM HEPES (pH 8.0), 150 mM NaCl. Intensity of the measured spectra was corrected for the concomitant dilution of the WGR domain. Integral intensities (Ifl.) of fluorescence spectra were averaged over three independent measurements (mean ± SEM) and used to plot the corresponding Ifl. vs. ion concentration graphs. Data were fitted with the one site binding equation:2 [drawing 2]
Where C is the concentration of divalent cations, Kd is a dissociation constant of the complex, Im and Ifl0 are maximal and initial values of Ifl., respectively.

Compound: [Cl-].[Cl-].[Zn+2] [Zn2+, ZnCl2]
- fluorescence intensity (Fig 3d) (wavelength 344.060, 5.9 uM Zn): 72.459 and 82.192 and 100.090 and 79.146
- fluorescence intensity (Fig 3d) (wavelength 344.060, 11.6 uM Zn): 137.473 and 118.285 and 119.381 and 125.424
- fluorescence intensity (Fig 3d) (wavelength 344.060, 17.2 uM): 144.028 and 132.015 and 131.570 and 130.788
- fluorescence intensity (Fig 3d) (wavelength 344.060, 22.1 uM): 144.718 and 132.736 and 132.728 and 133.653
- fluorescence intensity (Fig 3d) (wavelength 344.060, 303 uM + 7 mM EDTA): 46.920 and 60.763 and 47.376 and 57.503
- fluorescence intensity (Fig 3d) (wavelength 344.060, 308 uM): 145.265 and 136.149 and 137.211 and 134.542
- fluorescence intensity (Fig 3d) (wavelength 345.000, 5.9 uM Zn): 72.128 and 82.137 and 99.714 and 78.760
- fluorescence intensity (Fig 3d) (wavelength 345.000, 11.6 uM Zn): 136.143 and 118.777 and 118.942 and 125.157
- fluorescence intensity (Fig 3d) (wavelength 345.000, 17.2 uM): 143.645 and 133.321 and 131.572 and 130.710
- fluorescence intensity (Fig 3d) (wavelength 345.000, 22.1 uM): 145.000 and 131.998 and 131.843 and 133.775
- fluorescence intensity (Fig 3d) (wavelength 345.000, 303 uM + 7 mM EDTA): 47.458 and 59.823 and 48.062 and 56.893
- fluorescence intensity (Fig 3d) (wavelength 345.000, 308 uM): 144.708 and 135.717 and 137.517 and 134.634
- fluorescence intensity (Fig 3d) (wavelength 345.930, 5.9 uM Zn): 71.776 and 81.061 and 99.602 and 78.398
- fluorescence intensity (Fig 3d) (wavelength 345.930, 11.6 uM Zn): 136.970 and 118.112 and 117.682 and 126.024
- fluorescence intensity (Fig 3d) (wavelength 345.930, 17.2 uM): 141.957 and 131.827 and 133.131 and 130.466
- fluorescence intensity (Fig 3d) (wavelength 345.930, 22.1 uM): 144.023 and 131.491 and 131.306 and 133.317
- fluorescence intensity (Fig 3d) (wavelength 345.930, 303 uM + 7 mM EDTA): 46.538 and 59.478 and 47.757 and 57.073
- fluorescence intensity (Fig 3d) (wavelength 345.930, 308 uM): 146.221 and 136.206 and 135.004 and 135.504
- fluorescence intensity (Fig 3d) (wavelength 347.030, 5.9 uM Zn): 71.072 and 82.334 and 98.859 and 79.154
- fluorescence intensity (Fig 3d) (wavelength 347.030, 11.6 uM Zn): 136.428 and 116.259 and 118.136 and 125.709
- fluorescence intensity (Fig 3d) (wavelength 347.030, 17.2 uM): 143.257 and 130.522 and 131.583 and 130.190
- fluorescence intensity (Fig 3d) (wavelength 347.030, 22.1 uM): 143.355 and 132.787 and 131.250 and 133.300
- fluorescence intensity (Fig 3d) (wavelength 347.030, 303 uM + 7 mM EDTA): 46.563 and 59.464 and 46.878 and 57.408
- fluorescence intensity (Fig 3d) (wavelength 347.030, 308 uM): 143.593 and 135.007 and 136.120 and 131.786
- fluorescence intensity (Fig 3d) (wavelength 347.960, 5.9 uM Zn): 71.769 and 81.510 and 99.591 and 78.171
- fluorescence intensity (Fig 3d) (wavelength 347.960, 11.6 uM Zn): 135.240 and 116.880 and 117.708 and 124.016
- fluorescence intensity (Fig 3d) (wavelength 347.960, 17.2 uM): 142.807 and 131.611 and 130.941 and 130.389
- fluorescence intensity (Fig 3d) (wavelength 347.960, 22.1 uM): 143.457 and 132.267 and 131.085 and 131.433
- fluorescence intensity (Fig 3d) (wavelength 347.960, 303 uM + 7 mM EDTA): 45.283 and 58.791 and 46.798 and 57.210
- fluorescence intensity (Fig 3d) (wavelength 347.960, 308 uM): 143.843 and 137.208 and 136.441 and 131.749
- fluorescence intensity (Fig 3d) (wavelength 349.060, 5.9 uM Zn): 70.238 and 80.987 and 97.751 and 77.682
- fluorescence intensity (Fig 3d) (wavelength 349.060, 11.6 uM Zn): 133.289 and 115.415 and 117.009 and 123.858
- fluorescence intensity (Fig 3d) (wavelength 349.060, 17.2 uM): 141.765 and 129.352 and 128.670 and 129.296
- fluorescence intensity (Fig 3d) (wavelength 349.060, 22.1 uM): 143.406 and 129.810 and 130.322 and 131.038
- fluorescence intensity (Fig 3d) (wavelength 349.060, 303 uM + 7 mM EDTA): 45.444 and 58.323 and 46.643 and 56.691
- fluorescence intensity (Fig 3d) (wavelength 349.060, 308 uM): 142.247 and 135.083 and 133.810 and 131.017
- fluorescence intensity (Fig 3d) (wavelength 350.000, 5.9 uM Zn): 70.361 and 79.928 and 96.969 and 77.347
- fluorescence intensity (Fig 3d) (wavelength 350.000, 11.6 uM Zn): 133.490 and 115.112 and 115.204 and 122.552
- fluorescence intensity (Fig 3d) (wavelength 350.000, 17.2 uM): 139.096 and 129.329 and 128.852 and 128.076
- fluorescence intensity (Fig 3d) (wavelength 350.000, 22.1 uM): 141.183 and 128.688 and 130.269 and 130.830
- fluorescence intensity (Fig 3d) (wavelength 350.000, 303 uM + 7 mM EDTA): 46.247 and 57.135 and 46.656 and 55.433
- fluorescence intensity (Fig 3d) (wavelength 350.000, 308 uM): 141.144 and 132.558 and 133.688 and 130.339
- fluorescence intensity (Fig 3d) (wavelength 351.070, 5.9 uM Zn): 69.431 and 78.906 and 96.271 and 76.869
- fluorescence intensity (Fig 3d) (wavelength 351.070, 11.6 uM Zn): 132.922 and 115.046 and 115.123 and 121.097
- fluorescence intensity (Fig 3d) (wavelength 351.070, 17.2 uM): 138.288 and 127.252 and 128.238 and 128.122
- fluorescence intensity (Fig 3d) (wavelength 351.070, 22.1 uM): 141.654 and 129.837 and 129.072 and 130.149
- fluorescence intensity (Fig 3d) (wavelength 351.070, 303 uM + 7 mM EDTA): 44.467 and 57.328 and 46.098 and 55.451
- fluorescence intensity (Fig 3d) (wavelength 351.070, 308 uM): 140.017 and 132.105 and 134.422 and 129.176
- fluorescence intensity (Fig 3d) (wavelength 352.000, 5.9 uM Zn): 68.120 and 77.981 and 94.313 and 75.803
- fluorescence intensity (Fig 3d) (wavelength 352.000, 11.6 uM Zn): 130.471 and 114.079 and 114.609 and 120.211
- fluorescence intensity (Fig 3d) (wavelength 352.000, 17.2 uM): 137.149 and 127.411 and 127.203 and 126.379
- fluorescence intensity (Fig 3d) (wavelength 352.000, 22.1 uM): 138.638 and 128.177 and 127.675 and 129.182
- fluorescence intensity (Fig 3d) (wavelength 352.000, 303 uM + 7 mM EDTA): 43.888 and 56.825 and 45.420 and 54.752
- fluorescence intensity (Fig 3d) (wavelength 352.000, 308 uM): 138.087 and 131.742 and 132.330 and 127.940
- fluorescence intensity (Fig 3d) (wavelength 353.070, 5.9 uM Zn): 68.949 and 77.078 and 94.185 and 75.610
- fluorescence intensity (Fig 3d) (wavelength 353.070, 11.6 uM Zn): 129.066 and 111.840 and 112.851 and 119.597
- fluorescence intensity (Fig 3d) (wavelength 353.070, 17.2 uM): 136.752 and 125.751 and 126.785 and 126.237
- fluorescence intensity (Fig 3d) (wavelength 353.070, 22.1 uM): 137.626 and 125.497 and 127.123 and 126.659
- fluorescence intensity (Fig 3d) (wavelength 353.070, 303 uM + 7 mM EDTA): 44.416 and 56.590 and 44.950 and 53.826
- fluorescence intensity (Fig 3d) (wavelength 353.070, 308 uM): 136.115 and 129.581 and 128.718 and 126.753
